The text below walks through data of paper PMC2483295.

Results are given in words; binding and its absence hold for the method and conditions named. Some entries that bind do so weakly or less than the wild type. Sequences can lack the tags named with a protein.

In assay [1] the target is T1, phyA-BD (Arabidopsis) (UniProt P14712).
T1 sequence: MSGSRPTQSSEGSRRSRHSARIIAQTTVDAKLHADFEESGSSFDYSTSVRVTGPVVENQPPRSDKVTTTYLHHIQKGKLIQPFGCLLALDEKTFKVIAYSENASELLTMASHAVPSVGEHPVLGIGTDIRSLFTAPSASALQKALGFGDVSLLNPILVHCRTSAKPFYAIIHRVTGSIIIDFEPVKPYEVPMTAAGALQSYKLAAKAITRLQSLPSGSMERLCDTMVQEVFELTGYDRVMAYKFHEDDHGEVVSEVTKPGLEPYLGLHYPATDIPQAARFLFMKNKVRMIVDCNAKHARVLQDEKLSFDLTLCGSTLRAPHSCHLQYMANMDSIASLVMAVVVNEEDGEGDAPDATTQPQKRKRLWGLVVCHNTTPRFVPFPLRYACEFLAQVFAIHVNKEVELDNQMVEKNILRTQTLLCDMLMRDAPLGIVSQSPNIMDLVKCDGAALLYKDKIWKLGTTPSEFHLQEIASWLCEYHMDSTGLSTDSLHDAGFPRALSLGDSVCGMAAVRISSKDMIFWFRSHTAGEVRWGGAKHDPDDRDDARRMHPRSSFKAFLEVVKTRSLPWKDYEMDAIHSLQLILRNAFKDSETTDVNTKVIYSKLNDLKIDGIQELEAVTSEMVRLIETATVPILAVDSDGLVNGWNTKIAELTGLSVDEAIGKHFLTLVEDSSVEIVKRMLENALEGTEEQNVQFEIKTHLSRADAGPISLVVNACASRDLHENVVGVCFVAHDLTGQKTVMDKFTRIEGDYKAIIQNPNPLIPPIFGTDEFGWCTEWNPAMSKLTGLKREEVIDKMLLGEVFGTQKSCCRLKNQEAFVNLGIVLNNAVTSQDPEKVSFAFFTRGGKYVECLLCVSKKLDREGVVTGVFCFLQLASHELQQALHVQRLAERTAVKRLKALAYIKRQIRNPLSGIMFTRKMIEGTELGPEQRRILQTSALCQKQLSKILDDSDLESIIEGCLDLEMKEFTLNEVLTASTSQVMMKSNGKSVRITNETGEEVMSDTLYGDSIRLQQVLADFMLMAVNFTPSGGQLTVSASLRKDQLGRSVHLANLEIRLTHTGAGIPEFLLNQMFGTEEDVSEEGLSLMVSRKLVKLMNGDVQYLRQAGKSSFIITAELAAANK
In words: two-hybrid; yeast AH109, growth on L-W-H- plates with 1 mM 3-aminotriazole and 10 µM PCB, 3 d in 1 µmol m^-2 s^-1 red light (Pfr) or 13 µmol m^-2 s^-1 far-red light (Pr).

In assay [2] the target is T1, phyA-BD (Arabidopsis). Nature of the assay: two-hybrid; yeast Y187, β-galactosidase activity (Miller units); cultures with 10 µM PCB, 5 min red light pulse (12 µmol m^-2 s^-1), then 240 min dark; 5 min far-red pulse given 0, 60, 120 or 240 min after the red pulse.

B1: AD-FHY1 (protein, UniProt Q8S4Q6 1-202)
chain: MPEVEVDNNNEKPSEINSFHHMIISSSKNVLKMEEVEVSKKRKFQTDQSDELSLLPLSKHTCFANVACSENTNGNSEIDTEYSMSSYVNSTTSMECNNDIEMKEESSGSCGEDKMISFESHLDYIYGTQNLEDFSEKVIENILYLDEQEEEEEDAKGCSSNAAKFVLSSGRWTVNQDDSTLHETKKPTIDQEFEQYFSTLML
Take B1: the binding result in assay [1] and in assay [2] was “binds” in each case.
